PubChem BioAssay AID1224830 – NIAID, 2016

Aim: 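Genes whose knock-down alters the TNF-alpha reporter response to LPS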 (primary screen)
Cells: human THP-1 monocytic leukaemia cells, TNF dual-luciferase reporter clone, PMA-differentiated to macrophage-like cells
Reagent: siRNA pool against human genes, 50 nM
Duration: LPS for 4 h, given about 3 days after siRNA transfection
Challenge: bacterial LPS (TLR4 ligand), 10 ng/ml
Detection: 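Ratio of firefly to renilla light, scaled to the plate median and expressed as a robust z-score per replicate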
Reading the numbers: TNF reporter robust z-score: higher = stronger TNF reporter response to LPS
Hit rule: 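a well is active when its z-score exceeds 2.8 or falls below -1.5; control wells carry no call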
Shown is an unselected part of about 18,000 deposited reagents. About 2,900 of all reagents (16%) count as active. 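Calls are made per well; low scores hint the gene aids the LPS response, high scores that it dampens it.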 Entries without a mark were called inactive. Repeated entries: four replicate wells of each siRNA pool.

| Target gene | TNF reporter robust z-score |
| --- | --- |
| PHEX (phosphate regulating endopeptidase X-linked) | -0.82 |
| PHEX (phosphate regulating endopeptidase X-linked) | -0.39 |
| PHEX (phosphate regulating endopeptidase X-linked) | -0.94 |
| PHEX (phosphate regulating endopeptidase X-linked) | -0.4 |
| PLCXD2 | 2.39 |
| PLCXD2 | 2.81 (active) |
| PLCXD2 | 3.67 (active) |
| PLCXD2 | 4.31 (active) |
| CABLES2 (Cdk5 and Abl enzyme substrate 2) | -0.75 |
| CABLES2 (Cdk5 and Abl enzyme substrate 2) | -0.59 |
| CABLES2 (Cdk5 and Abl enzyme substrate 2) | -0.72 |
| CABLES2 (Cdk5 and Abl enzyme substrate 2) | -1.34 |
| TAS2R7 (taste 2 receptor member 7) | -1.42 |
| TAS2R7 (taste 2 receptor member 7) | -1.06 |
| TAS2R7 (taste 2 receptor member 7) | -1.51 (active) |
| TAS2R7 (taste 2 receptor member 7) | -1.4 |
| HOXB2 (homeobox B2) | 0.95 |
| HOXB2 (homeobox B2) | 1.43 |
| HOXB2 (homeobox B2) | 1.69 |
| HOXB2 (homeobox B2) | 1.27 |
| ACOT6 (acyl-CoA thioesterase 6) | -0.84 |
| ACOT6 (acyl-CoA thioesterase 6) | -0.45 |
| ACOT6 (acyl-CoA thioesterase 6) | -0.69 |
| ACOT6 (acyl-CoA thioesterase 6) | -0.61 |
| LMAN1L (lectin, mannose binding 1 like) | -1.09 |
| LMAN1L (lectin, mannose binding 1 like) | -0.72 |
| LMAN1L (lectin, mannose binding 1 like) | -1.44 |
| LMAN1L (lectin, mannose binding 1 like) | -0.81 |
| HYOU1 (hypoxia up-regulated 1) | -0.58 |
| HYOU1 (hypoxia up-regulated 1) | 0.5 |
| HYOU1 (hypoxia up-regulated 1) | -0.23 |
| HYOU1 (hypoxia up-regulated 1) | -0.49 |
| CST8 (cystatin 8) | 2.05 |
| CST8 (cystatin 8) | 0.2 |
| CST8 (cystatin 8) | 0.37 |
| CST8 (cystatin 8) | 0.25 |
| HSP90AA1 (heat shock protein 90 alpha family class A member 1) | 1.67 |
| HSP90AA1 (heat shock protein 90 alpha family class A member 1) | 4.52 (active) |
| HSP90AA1 (heat shock protein 90 alpha family class A member 1) | 1.39 |
| HSP90AA1 (heat shock protein 90 alpha family class A member 1) | 0.06 |
| MED23 (mediator complex subunit 23) | 1.76 |
| MED23 (mediator complex subunit 23) | 0.38 |
| MED23 (mediator complex subunit 23) | 1.98 |
| MED23 (mediator complex subunit 23) | 2.24 |
| EXTL3 (exostosin like glycosyltransferase 3) | 0.69 |
| EXTL3 (exostosin like glycosyltransferase 3) | 1.81 |
| EXTL3 (exostosin like glycosyltransferase 3) | 0.98 |
| EXTL3 (exostosin like glycosyltransferase 3) | 0.29 |
| PER2 (period circadian regulator 2) | 0.67 |
| PER2 (period circadian regulator 2) | 0.65 |
| PER2 (period circadian regulator 2) | 0.12 |
| PER2 (period circadian regulator 2) | 1.04 |
| TAS2R8 (taste 2 receptor member 8) | 1.61 |
| TAS2R8 (taste 2 receptor member 8) | 1.06 |
| TAS2R8 (taste 2 receptor member 8) | 1.03 |
| TAS2R8 (taste 2 receptor member 8) | 0.57 |
| METTL15 (methyltransferase 15, mitochondrial 12S rRNA N4-cytidine) | 0.05 |
| METTL15 (methyltransferase 15, mitochondrial 12S rRNA N4-cytidine) | -1.1 |
| METTL15 (methyltransferase 15, mitochondrial 12S rRNA N4-cytidine) | 0.55 |
| METTL15 (methyltransferase 15, mitochondrial 12S rRNA N4-cytidine) | 0.48 |
| SLC26A3 | -0.62 |
| SLC26A3 | -0.38 |
| SLC26A3 | 0.32 |
| SLC26A3 | 1.08 |

Records listed above called active:
| Target gene | TNF reporter robust z-score |
| --- | --- |
| PLCXD2 | 2.81 (active) |
| PLCXD2 | 3.67 (active) |
| PLCXD2 | 4.31 (active) |
| TAS2R7 (taste 2 receptor member 7) | -1.51 (active) |
| HSP90AA1 (heat shock protein 90 alpha family class A member 1) | 4.52 (active) |

Additional results follow:
| Target gene | TNF reporter robust z-score |
| --- | --- |
| LCA5L (lebercilin LCA5 like) | -0.1 |
| LCA5L (lebercilin LCA5 like) | 0.48 |
| LCA5L (lebercilin LCA5 like) | 0.42 |
| LCA5L (lebercilin LCA5 like) | 0.69 |
| TGM4 (transglutaminase 4) | 0.49 |
| TGM4 (transglutaminase 4) | 0.82 |
| TGM4 (transglutaminase 4) | 0.43 |
| TGM4 (transglutaminase 4) | 0.04 |
| OTULIN (OTU deubiquitinase with linear linkage specificity) | -0.26 |
| OTULIN (OTU deubiquitinase with linear linkage specificity) | -0.29 |
| OTULIN (OTU deubiquitinase with linear linkage specificity) | 0.03 |
| ME3 (malic enzyme 3) | -1.22 |
| ME3 (malic enzyme 3) | -1.09 |
| ME3 (malic enzyme 3) | -0.98 |
| ME3 (malic enzyme 3) | -0.94 |
| LACC1 (laccase domain multifunctional purine nucleosidase 1) | 0.37 |
| LACC1 (laccase domain multifunctional purine nucleosidase 1) | 1.15 |
| LACC1 (laccase domain multifunctional purine nucleosidase 1) | 0.77 |
| LACC1 (laccase domain multifunctional purine nucleosidase 1) | -0.39 |
| HCAR2 (hydroxycarboxylic acid receptor 2) | -0.82 |
| HCAR2 (hydroxycarboxylic acid receptor 2) | -0.99 |
| HCAR2 (hydroxycarboxylic acid receptor 2) | -1.34 |
| HCAR2 (hydroxycarboxylic acid receptor 2) | -0.2 |
| MFF (mitochondrial fission factor) | -0.83 |
| MFF (mitochondrial fission factor) | 0.47 |
| MFF (mitochondrial fission factor) | 0.18 |
| MFF (mitochondrial fission factor) | -0.86 |
| ATAD3C (ATPase family AAA domain containing 3C) | 0.3 |
| ATAD3C (ATPase family AAA domain containing 3C) | 0.95 |
| ATAD3C (ATPase family AAA domain containing 3C) | 0.16 |
| ATAD3C (ATPase family AAA domain containing 3C) | 0.89 |
| DPM2 (dolichyl-phosphate mannosyltransferase subunit 2, regulatory) | 0.13 |
| DPM2 (dolichyl-phosphate mannosyltransferase subunit 2, regulatory) | 0.91 |
| DPM2 (dolichyl-phosphate mannosyltransferase subunit 2, regulatory) | 0.79 |
| DPM2 (dolichyl-phosphate mannosyltransferase subunit 2, regulatory) | 0.04 |
| CFAP300 (cilia and flagella associated protein 300) | -1.16 |
| CFAP300 (cilia and flagella associated protein 300) | -1.22 |
| CFAP300 (cilia and flagella associated protein 300) | -0.53 |
| CFAP300 (cilia and flagella associated protein 300) | -0.71 |
| SLC68A1 | 2.15 |
| SLC68A1 | 1.24 |
| SLC68A1 | 0.7 |
| SLC68A1 | 2.09 |
| SRXN1 (sulfiredoxin 1) | -1.5 |
| SRXN1 (sulfiredoxin 1) | -0.61 |
| SRXN1 (sulfiredoxin 1) | -0.67 |
| SRXN1 (sulfiredoxin 1) | -1.82 (active) |
